Patent US20090203720A1, “Methods for inhibiting cell growth” (priority 2003, published 2009)
For at least one compound, name, drawing or mass did not settle the structure.

System: RXR-associated kinase
Experiment: Effect of signalling pathway modulators on RXR-associated kinase activity in RXR transfected cells
Type: cell-based
Conditions: cell treatment: anisomycin 50 μM; pathway inhibitors 1 hour; insulin 30 minutes
Protocol: The cells were stimulated with anisomycin (50 μM) and COMPOUND-1 (10^−7 M) as indicated, then the cell lysates were subjected to immunoprecipitation and in vitro kinase assay (bottom panel).
Activation of stress pathways lead to the phosphorylation of RXR (22,23), and MKK4/SEK1 is reported to associate with and phosphorylate RXR directly (23). […] Anisomycin treatment led to phosphorylation of RXR resulting in an up-shift of the RXR band on SDS-PAGE (22).
To further study the effect of signaling transduction pathways on the RXR-associated kinase activity, RXR transfected cells were incubated with inhibitors of the PI3 kinase (wortmannin), p42/44 MAPK (PD98059), or p38 MAPK pathways (SB202190 or SB203580) for 1 hour or stimulated with insulin or 10% serum for 30 minutes. RXR complexes were then isolated and the in vitro kinase assays were performed in the usual manner.

Structure (SMILES): COC[C@H]1OC(=O)c2coc3c2[C@@]1(C)C1=C(C3=O)[C@@H]2CCC(=O)[C@@]2(C)C[C@H]1OC(C)=O [wortmannin]
- effect on kinase activities in the RXR immunocomplexes: not influenced to a significant degree
